According to paper doi:10.1101/2025.11.06.685569 (bioRxiv, 2025):

Assays:
Assay in all cases: pull-down
[1] = target: Myc-tagged Atg9^ΔTMR (S. cerevisiae)
[2] = target: FLAG-tagged Atg9^ΔTMR_Δ939-997 (S. cerevisiae)
[3] = target: FLAG-tagged Atg9^ΔTMR_Helix-2_mut (S. cerevisiae)
[4] = target: FLAG-tagged Atg9^ΔTMR_T804E_S819D_S831D_S842D (S. cerevisiae)
[5] = target: FLAG-tagged Atg9^ΔTMR_Helix-1+2_mut (S. cerevisiae)
[6] = target: FLAG-tagged Atg9^ΔTMR_Helix-1_mut (S. cerevisiae)
[7] = target: FLAG-tagged Atg9^ΔTMR_S802D (S. cerevisiae)
[8] = target: FLAG-tagged Atg9^ΔTMR (S. cerevisiae)

B1: FLAG-StrepII^2x-tagged Atg11 (protein, UniProt Q12527 1-1178)
chain: MADADEYSTAPTQQEITPLQTTATIINAISGECITTNVDFFVSLDKFKQFIARKWKIPPDQLLILLPYGNKLKPSMFKELLINRSFTLNDFYVYDRRLFSLVSKPTPTNLLTSKDSNPMNSPNSNDLTETLEYLIKNSHISQYQGSDTIMIKPMPSPLEDADVDLSRLNYHSVTSLLTTNLGWLSALEIDVHYFKSLIPDIIAHIKRIFDGLTVCSQYLKLYCFDVESLYNSNVQFLNQLVDNGMTSKWEKCFNDTLSKLTALEGDSLQKFINIESLLENEKSVKILNHSINGKLNKIKREIDENASFRDIITVNIDRLRQMFTPNESKFELEDQMAESFEVLVSEMRTRSRNVLDKEEEEFNSQEFLKSMNVMLEKDKKESVKTLFTISQALYSQIGELIDLKKSLQKHAVAILGNIAFTQMEILGIKRLLLNECNKDLELYKKYEVEFAQVEDLPLIYGLYLIEKYRRLSWFQQILSFISNFNQDLELFKQNELRTRNKWVKNFGSIATVFCEDLLSSSDFKRLNEYHSHTSPPNEDEEDENENSIANYRQDLVKVSQAIDNYMTQIKETDVSEPIIDLLSKTLFETKRFHIIYSNFKNNNNNSSNGNSISPEGSIALKSDDVVKGYKTRIKKLESLLHEFQYSDIGHWPQGVLNTHLKPFRGSATSINKKKFLGASVLLEPANISEVNIDSVSQANNHQIQELESNVDDLLHQLQLLKEENNRKSMQISEMGKKISDLEVEKTAYRETLTNLNQELARLTNEEQSHRTEIFTLNASFKKQLNDIISQDNEKIEKLTGDYDDVSKSRERLQMDLDESNKKHEQEVNLLKADIERLGKQIVTSEKSYAETNSSSMEKGEKFETIPLAEDPGRENQISAYTQTLQDRIFDIISTNIFILENIGLLLTFDNNNNIQIRRVKGLKKGTAQSNILDESTQMLDAHDNSLIKSPVFQKLKDEYELIKSVANGSEKDTQQSIFLGNITQLYDNKLYEVAVIRRFKDIETLAKKLTKENKIKRTLLERFQREKVTLRNFQIGDLALFLPTRENVNSVGSMSSSTSSLSSSFSSVDLSTPPPLDAMSIQSSPSVIHSNVINQASISGRDKNKLMRPWAAFTAFEESTRYFLKDEKGLTKGKEWFVGRIVTLEHFVADSPSNNPFRLPKGSVWFQVTAVVVSYQGV
B1 was tested, and the binding [1] was “binds”.

B2: Atg23 (no tag named in the legend) (protein, UniProt Q06671 1-453)
chain: MELNQVLEKKEQILQYLGTLVGLHEKALSDVNSASQVTSIRKDITICLNDLCRINDLLVSHDGLLKREIGSLLRDKQELLELNEREQLLWKERKSWHIKQETDAAPADYVIDKDAIITISSHHRTSLNKYIESVGAENTILSNTDDSDAMIEEVQNAESSADQMIRNYKLLQLSHKQAKSEIIRLETLLRDFKKDNKFIEEELKRQSGRIRSEMGNIDFHLSKIEESKHQLMKRIGFESPLTQEKSLSEKIFNLRLSSADEDYNERQTINMKNFVHMKDLIELKIEDLQEQLMRNKNESSTVLTQRELWLDCQKKVGDLESKLITKLRSSSNSKIPPNEMSEMINSTIQYLNNLLDSSDEKLTTTLISNERDVLSKACEELHSESTTAQDGSSALPSKPIDIHKSHKGSNASSNLKQPSTPSFLVASKSPPKIGISESVVNANKNDAISKKVE
In the case of B2, the binding [2] is reported as “binds”.

B3: Atg17 (protein, UniProt Q06410 1-417)
chain: MNEADVTKFVNNARKTLTDAQLLCSSANLRIVDIKKKLSSWQLSISKLNFLIVGLRQQGKFLYTILKEGIGTKLIQKQWNQAVLVVLVDEMKYWQYEITSKVQRLDGIVNELSISEKDDTDPSKLGDYISRDNVNLLNDKLKEVPVIERQIENIKLQYENMVRKVNKELIDTKLTDVTQKFQSKFGIDNLMETNVAEQFSRELTDLEKDLAEIMNSLTQHFDKTLLLQDKKIDNDEREELFKVVQGDDKELYNIFKTLHEVIDDVDKTILNLGQFLQAKIKEKTELHSEVSEIINDFNRNLEYLLIFKDISNLIDSFKNSCTQDIQTTKELCEFYDNFEESYGNLVLEAKRRKDVANRMKTILKDCEKQLQNLDAQDQEERQNFIAENGTYLPETIWPGKIDDFSSLYTLNYNVKNP
With B3 the binding [1] was “binds”.

B4: FLAG-tagged Atg23 (protein, UniProt Q06671 1-453)
chain: B2 chain
In the case of B4, the binding [1] is reported as “binds”.

For TRGGSFQDFRAEFIQRSTQFLTSLPEFCKEVVSRILGRSTAQRGGYSAV (domain or fragment, S. cerevisiae, UniProt P46989 223-271, looked up) [SUMO*-Atg27^CTR-StrepII^2x], the binding [3] was “binds”, the binding [4] was “binds weakly” and the binding [5] was “binds weakly”. For the same binder, the binding [6] was “binds”, the binding [7] was “binds” and the binding [8] was “binds”.

No constants are given. Whether binding was seen depends on the method and setting. Binding can be weak; no strength is given. For some of these results: Sequences can lack the tags named with a protein.
